Source: PubChem BioAssay AID2685 (National Center for Advancing Translational Sciences (NCATS), 2010)
Where “and” joins values, the source holds several entries; their conditions need not be identical. Equal entries are not always repeated. The list shows a part of the results. These are further read-outs of the screen, such as a control signal, another cell line or another target. No call is given for them. Compounds called inactive in the main read-out are mostly missing here. The note in brackets gives the kind of curve behind each potency; many fits are weak.

Assay: qHTS Assay for Lipid Storage Modulators in Drosophila S3 Cells;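 on cell number change: cells counted by Cell Tracker Red CMTPX staining in the red channel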
Conditions: BODIPY lipid droplet fluorescence, 18-24 h; for cell number change: measured here: cell count max response, cells fed with added oleic acid
In short: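 Drosophila S3 cells loaded with oleic acid (400 uM, as added) and compounds at several concentrations; lipid droplets imaged by 488-nm laser-scanning cytometry, 500–530 nm intensity and object ratio to cell channel. Percent activity normalized to 20 uM Triacsin C.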

[1] = measured here: cell number channel AC50, cells fed with added oleic acid
[2] = measured here: lipid fluorescence (Fed channel) AC50, cells fed with added oleic acid

SMILES | cell number change | AC50 [1] | AC50 [2]
O=C(N/N=C1\C(=O)c2cccc3cccc1c23)c1ccc(O)cc1 | -50.3% | 35.5 µM [falling, single point] | 14.1 µM [falling, single point]
CCOc1ccc(-n2c(N)c(C(=O)NCC3CCCO3)sc2=S)cc1 (stereo unspecified) | 6.69% |  | 0.58 µM [rising, single point]
Cc1cc(Nc2nc3ccccc3nc2Cl)n(-c2ccc([N+](=O)[O-])cc2)n1 |  | 6.51 µM [rising, single point] | 6.51 µM [rising, single point]
O=C(Nc1ccccc1C(=O)O)c1cccc(N2C(=O)c3ccccc3C2=O)c1 | 13.3% |  | 
CCOC(=O)c1c(NC(=O)CSc2nnc(CNc3ccc(F)cc3)o2)sc(C(C)=O)c1C | 0.885% |  | 0.291 µM [rising, partial curve, poor fit]
Cc1ccc(N/C(N)=N/c2nc(CSc3ccc(C)cc3)cc(=O)[nH]2)cc1 | 13.3% |  | 
O=C(Cn1cccc1C(=O)c1ccccc1)NCCc1ccc(Cl)cc1 | 79.5% | 18.4 µM [rising, partial curve] | 
O=C(Cn1cc(C(=O)c2ccco2)c2ccccc21)Nc1ccccc1 |  |  | 0.00517 µM [rising, full curve, poor fit]
NS(=O)(=O)c1ccc(NC(=S)NC2CCCC2)cc1 | -0.235% |  | 
c1ccc(-c2nnc(-c3ccncc3)o2)cc1 | 91.8% | 7.31 µM [rising, partial curve] | 
Cc1c(C(=O)N2CCOCC2)[nH]c2c1C(=O)CC(c1ccccc1Cl)C2 (stereo unspecified) | 2.23% |  | 4.11 µM [rising, full curve]
CN1CCN(C(=O)C2CCCN(S(=O)(=O)c3ccc(F)cc3)C2)CC1 (stereo unspecified) | -1.65% |  | 18.4 µM [rising, partial curve]
CCOc1cc(C2C(C#N)=C(N)OC(C)=C2C(C)=O)cc(Br)c1O (stereo unspecified) |  |  | 0.731 µM [falling, full curve]
O=C(O)c1ccc(-n2cccc2)cc1O | 7.4% |  | 20.6 µM [falling, partial curve]
COc1cccc(N2CC(C(=O)Nc3ccc(C(=O)OC(C)C)cc3)CC2=O)c1 (stereo unspecified) | -27.3% |  | 11.6 µM [falling, partial curve]
CCOC(=O)N1CCN(S(=O)(=O)c2ccc(C(=O)N(CCCN(C)C)c3nc4c(C)c(C)ccc4s3)cc2)CC1 | 38% | 25.9 µM [rising, single point] | 0.13 µM [falling, full curve, poor fit]
CCC(=O)N1CCCN(S(=O)(=O)c2ccc(C)cc2)C1c1ccc(OC)cc1 (stereo unspecified) | -15.4% |  | 29.1 µM [rising, partial curve, poor fit]
O=C(CSc1nc(=O)n(CCCN2CCOCC2)c2c1CCCC2)Nc1cccc(Cl)c1 | -7.91% |  | 2.91 µM [falling, partial curve]
COCCn1cnc2c1c(=O)n(CC(=O)NCC(F)(F)F)c(=O)n2Cc1ccccc1 | 22.5% | 0.82 µM [rising, full curve, poor fit] | 

Part of the list above with just cell number change:
SMILES	cell number change
O=C(CSc1nc(=O)n(CCCN2CCOCC2)c2c1CCCC2)Nc1cccc(Cl)c1	-7.91%
COCCn1cnc2c1c(=O)n(CC(=O)NCC(F)(F)F)c(=O)n2Cc1ccccc1	22.5%

Remaining list, next part.

SMILES | cell number change | AC50 [1] | AC50 [2]
COc1ccc(N2C(=O)CCC2(C(N)=O)c2ccccc2)cc1 (stereo unspecified) | 6.78% | 0.00461 µM [falling, full curve, poor fit] | 
COc1cc2c(cc1OC)C(c1cccs1)N(C(=O)c1cccnc1)CC2 (stereo unspecified) |  | 0.103 µM [rising, single point] | 
CCOc1ccc(CC2NCCc3cc(OCC)c(OCC)cc32)cc1OCC (stereo unspecified) | 18.2% | 0.082 µM [rising, full curve, poor fit] | 
Cc1ccc2cc3c(nc2c1)N(c1ccccc1)CC3 |  | 0.146 µM [rising, full curve] | 
O=C(O)CSc1nc2c(c(C(F)(F)F)n1)CCCC2 | -54.1% and -44.7% | 6.51 µM [falling, partial curve] and 29.1 µM [falling, single point] | 29.1 µM [falling, single point]
Cc1ccc(N2CCN(S(=O)(=O)c3cccs3)CC2C)cc1 (stereo unspecified) |  |  | 29.1 µM [falling, single point]
COC(=O)CSc1nc2ccc(NC(C)=O)cc2s1 | -3.3% |  | 0.58 µM [falling, single point]
CC(C)NC(=S)N/N=C/c1cccs1 | -60.9% | 0.13 µM [falling, full curve] | 0.13 µM [falling, full curve, poor fit]
CN(C)C(=S)NCc1ccccc1 | 23.4% |  | 20.6 µM [rising, partial curve, poor fit]
COCCN(C(=O)CSc1nnc(-c2cccs2)n1N)c1c(N)n(Cc2ccccc2)c(=O)[nH]c1=O | 17.1% |  | 
Cc1cc(NC(=O)C(C)C)ncc1NC(=O)CCc1ccccc1 | 3.26% |  | 
Cc1nn(-c2ccccc2)c(C)c1C(=O)OCC(=O)N(C)C1CCS(=O)(=O)C1 (stereo unspecified) | -21.2% | 0.517 µM [falling, full curve, poor fit] | 
O=C(O)CCCNS(=O)(=O)c1ccc(F)cc1 | 0.707% |  | 0.103 µM [falling, full curve, poor fit]
CCC(C(=O)NC1CCCC1)N(C(=O)Cn1nnc(-c2ccc(OC)c(OC)c2)n1)C1CCCCC1 (stereo unspecified) | -8.86% |  | 0.651 µM [rising, full curve, poor fit]
COc1ccc(Nc2nc(-c3sc(C)nc3C)cs2)cc1 | -13.3% |  | 16.4 µM [rising, single point]
CCn1nc(NS(=O)(=O)c2ccc([N+](=O)[O-])cc2)c2cc3cccc(C)c3nc21 |  |  | 1.64 µM [falling, partial curve]
COc1cccc(NC(=O)c2ncc(Cl)c(Cl)c2Cl)c1 | -44.5% | 0.00651 µM [falling, full curve, poor fit] | 0.164 µM [falling, full curve]
Cc1ccc(NS(=O)(=O)c2cccc(C(=O)NCC(c3cccs3)N3CCOCC3)c2)cc1 (stereo unspecified) | 8.01% |  | 0.411 µM [falling, single point]
Cn1c(N)c(C(=O)COC(=O)CNC(=O)c2ccccc2Cl)c(=O)n(C)c1=O | -1.78% | 6.51 µM [falling, single point] | 6.51 µM [falling, single point]
